Article PMC5508227
These are yes or no findings as the source states them, for the method shown. In cells and extracts the contact can be indirect. Some results given as binding are weak or reduced against the parent protein; the word gives no strength.

Amino acid sequences for entries named in this document (tags omitted).
UniProt P56477: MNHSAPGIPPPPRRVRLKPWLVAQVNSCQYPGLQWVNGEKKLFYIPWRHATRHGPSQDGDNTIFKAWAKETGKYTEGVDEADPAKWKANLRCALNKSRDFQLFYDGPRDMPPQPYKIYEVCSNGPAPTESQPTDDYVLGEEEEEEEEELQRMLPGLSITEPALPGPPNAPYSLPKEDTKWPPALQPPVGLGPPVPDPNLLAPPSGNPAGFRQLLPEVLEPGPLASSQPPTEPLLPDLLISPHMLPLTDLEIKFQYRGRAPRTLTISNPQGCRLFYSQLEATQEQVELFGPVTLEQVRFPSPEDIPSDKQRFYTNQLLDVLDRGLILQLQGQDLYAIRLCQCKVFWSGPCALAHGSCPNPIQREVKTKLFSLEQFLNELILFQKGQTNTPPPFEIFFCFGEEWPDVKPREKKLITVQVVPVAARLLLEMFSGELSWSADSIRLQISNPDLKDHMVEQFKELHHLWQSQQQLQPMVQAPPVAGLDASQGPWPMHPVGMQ

Legend:
[1] = target: T1, Class A scavenger receptor (SR-A) (mouse (endogenous in peritoneal macrophages and RAW264.7)) (UniProt P30204); experiment: co-IP
T1 sequence: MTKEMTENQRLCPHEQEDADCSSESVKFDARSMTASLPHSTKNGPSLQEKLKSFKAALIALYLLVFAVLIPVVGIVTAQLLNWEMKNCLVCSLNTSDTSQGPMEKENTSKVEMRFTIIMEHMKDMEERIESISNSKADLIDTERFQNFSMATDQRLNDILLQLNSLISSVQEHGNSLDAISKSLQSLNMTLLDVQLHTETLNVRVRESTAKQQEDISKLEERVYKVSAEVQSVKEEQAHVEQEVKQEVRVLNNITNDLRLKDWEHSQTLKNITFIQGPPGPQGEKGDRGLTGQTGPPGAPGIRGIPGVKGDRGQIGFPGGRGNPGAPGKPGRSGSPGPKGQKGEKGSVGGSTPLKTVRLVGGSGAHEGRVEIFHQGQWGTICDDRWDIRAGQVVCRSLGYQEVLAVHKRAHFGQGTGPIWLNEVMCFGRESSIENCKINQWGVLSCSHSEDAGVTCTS

[2] = target: T1, Class A scavenger receptor (SR-A) (mouse (endogenous in peritoneal macrophages and RAW264.7)); experiment: co-IP; cytoplasm of RAW264.7 cells, with SR-A siRNA knock-down or forced expression of SR-A (pcDNA3.1-MSR); immunoblot
[3] = target: T2, SR-A expressed from pcDNA3.1-MSR (forced expression) (UniProt P30204); experiment: as above
T2 sequence: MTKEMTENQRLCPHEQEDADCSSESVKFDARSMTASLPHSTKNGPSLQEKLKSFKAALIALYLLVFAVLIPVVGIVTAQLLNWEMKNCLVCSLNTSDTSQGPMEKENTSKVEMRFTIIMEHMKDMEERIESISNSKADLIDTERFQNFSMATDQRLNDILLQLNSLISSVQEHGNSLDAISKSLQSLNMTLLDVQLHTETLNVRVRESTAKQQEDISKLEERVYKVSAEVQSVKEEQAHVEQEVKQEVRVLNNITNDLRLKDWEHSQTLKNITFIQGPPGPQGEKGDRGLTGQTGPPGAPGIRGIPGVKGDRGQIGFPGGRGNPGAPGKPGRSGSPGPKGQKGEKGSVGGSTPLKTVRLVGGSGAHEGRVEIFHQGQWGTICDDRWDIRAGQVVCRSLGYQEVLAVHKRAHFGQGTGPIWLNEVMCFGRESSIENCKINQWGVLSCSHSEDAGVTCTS

[4] = target: interferon-regulatory factor 5 (IRF5) (mouse (endogenous in peritoneal macrophages and RAW264.7)) (UniProt P56477); experiment: co-IP

## interferon-regulatory factor 5 (IRF5) (from UniProt P56477 1-497)
[1]
  binding: binds
[2]
  binding: binds
[3]
  binding: binds

B1: Class A scavenger receptor (SR-A) (receptor, UniProt P30204 1-458)
chain: MTKEMTENQRLCPHEQEDADCSSESVKFDARSMTASLPHSTKNGPSLQEKLKSFKAALIALYLLVFAVLIPVVGIVTAQLLNWEMKNCLVCSLNTSDTSQGPMEKENTSKVEMRFTIIMEHMKDMEERIESISNSKADLIDTERFQNFSMATDQRLNDILLQLNSLISSVQEHGNSLDAISKSLQSLNMTLLDVQLHTETLNVRVRESTAKQQEDISKLEERVYKVSAEVQSVKEEQAHVEQEVKQEVRVLNNITNDLRLKDWEHSQTLKNITFIQGPPGPQGEKGDRGLTGQTGPPGAPGIRGIPGVKGDRGQIGFPGGRGNPGAPGKPGRSGSPGPKGQKGEKGSVGGSTPLKTVRLVGGSGAHEGRVEIFHQGQWGTICDDRWDIRAGQVVCRSLGYQEVLAVHKRAHFGQGTGPIWLNEVMCFGRESSIENCKINQWGVLSCSHSEDAGVTCTS
[4]
  binding: binds
